Consider 1 compound from patent US20040048866A1 (priority 2002, published 2004).

The target in this test is T1, α1 and β1 subunits of guanylate cyclase (sGC), expressed in Sf9 cells (Homo sapiens, UniProt Q02108+Q02153).
T1 construct: made in house; host or cells: Sf9 insect cells (baculovirus co-infection); high-speed supernatant used unpurified
T1 sequence (Q02108 1-690): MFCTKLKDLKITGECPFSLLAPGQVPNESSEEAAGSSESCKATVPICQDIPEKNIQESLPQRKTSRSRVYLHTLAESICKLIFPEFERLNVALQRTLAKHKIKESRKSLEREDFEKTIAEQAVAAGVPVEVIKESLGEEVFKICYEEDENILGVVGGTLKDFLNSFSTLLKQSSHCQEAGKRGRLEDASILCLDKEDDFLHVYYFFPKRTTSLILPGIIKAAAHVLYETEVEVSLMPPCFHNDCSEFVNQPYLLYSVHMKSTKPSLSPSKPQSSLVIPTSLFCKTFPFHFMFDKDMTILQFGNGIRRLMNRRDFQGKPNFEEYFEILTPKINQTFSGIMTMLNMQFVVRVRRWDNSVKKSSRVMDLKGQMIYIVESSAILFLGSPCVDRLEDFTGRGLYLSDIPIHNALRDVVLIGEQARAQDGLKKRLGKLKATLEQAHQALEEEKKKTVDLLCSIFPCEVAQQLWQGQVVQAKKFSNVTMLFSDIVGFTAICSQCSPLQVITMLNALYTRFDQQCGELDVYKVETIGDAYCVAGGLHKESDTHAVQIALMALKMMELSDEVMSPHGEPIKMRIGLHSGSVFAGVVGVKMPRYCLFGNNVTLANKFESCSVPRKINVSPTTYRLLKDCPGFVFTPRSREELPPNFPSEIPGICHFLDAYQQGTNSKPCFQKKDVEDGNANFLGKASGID
T1 sequence (Q02153 1-619): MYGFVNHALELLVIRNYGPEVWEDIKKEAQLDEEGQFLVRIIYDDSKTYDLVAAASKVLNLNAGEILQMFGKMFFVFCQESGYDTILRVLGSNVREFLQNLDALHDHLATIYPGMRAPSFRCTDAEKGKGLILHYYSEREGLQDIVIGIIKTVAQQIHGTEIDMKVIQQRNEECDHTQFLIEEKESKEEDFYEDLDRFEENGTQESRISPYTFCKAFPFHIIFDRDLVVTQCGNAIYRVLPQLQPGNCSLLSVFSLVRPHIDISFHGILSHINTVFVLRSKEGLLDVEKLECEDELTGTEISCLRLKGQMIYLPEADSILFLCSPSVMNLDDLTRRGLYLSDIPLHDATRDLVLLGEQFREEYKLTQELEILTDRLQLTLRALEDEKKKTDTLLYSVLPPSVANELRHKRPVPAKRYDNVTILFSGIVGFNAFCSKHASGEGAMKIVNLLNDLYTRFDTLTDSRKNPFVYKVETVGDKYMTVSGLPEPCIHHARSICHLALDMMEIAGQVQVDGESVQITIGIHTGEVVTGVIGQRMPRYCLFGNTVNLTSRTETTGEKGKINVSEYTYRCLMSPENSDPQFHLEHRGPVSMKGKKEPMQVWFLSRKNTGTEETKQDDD
Description: Guanylate Cyclase Assay (formation of cyclic GMP from GTP). In kind it is biochemical. On the procedure: Sf9 cells were cultured in Sf-90011 medium supplemented with 10% (v/v) fetal calf serum at 28° C. to give a count of 6×10^5 cells/ml. The cells were then infected with a mixture of the virus stocks for the α1 and β1 subunits of guanylate cyclase at a multiplicity of infection of 0.1 pfu/cell. The cells were harvested 72 hours after infection and were pelleted by centrifugation. The resulting cell pellets were homogenized with Polytron homogenizer in 3 volumes of 20 mM Tris-HCl (pH 7.6) containing 1 mM EDTA, 5 mM dithiothreitol, 90 mM NaCl, 10% glycerol, and protease inhibitors mix (Roche Molecular Biochemicals). The homogenate was centrifuged at 50,000×g for 60 minutes and the supernatant was aliquotted and stored at −80° C.
Compounds of the present invention were dissolved in DMSO to make 100 mM and saved as stocks at −20° C. When compounds were tested, 10-fold concentrated solutions with 10% DMSO were prepared. 10 μl of 10-fold concentrated compound solutions were added to the reaction mixture total of 100 μl.
Guanylate cyclase activity was measured by the formation of cyclic GMP from GTP in a total volume of 100 μl. Guanylate cyclase-expressed Sf9 cell high-speed supernatant (Sf9 high-speed sup) was used as an enzyme source for the assay. […] The solution was centrifuged at 3000 rpm for 15 minutes at room temperature and cyclic GMP in 20 μl of the resulting supernatant was measured according to the protocol of Amersham cyclic GMP enzymeimmunoassay system (Amersham, RPN 226).
Compounds of the present invention were tested at 100 μM with and without 1 μM of sodium nitroprusside (SNP). […] Mean basal efficacy, in Table 1, was expressed as a percentage of 100 μM YC-1 (without SNP).
The mean activation, in Table 1, was calculated based on the formula: (activity of compound of the present invention at 100 μM with 1 μM SNP)−(activity of compound of on at 100 μM)/(activity of SNP at 1 μM)−(basal activity of sGC).

Consider `O=C(NCCCCO)c1ccc(Oc2nn(Cc3ccccc3)c3ccccc23)o1` [Example 6, 5-[(1-benzyl-1H-indazol-3-yl)oxy]-N-(4-hydroxybutyl)-2-furamide], for which the “Mean activation at 100 μM” value ((activity at 100 μM with 1 μM SNP − activity at 100 μM)/(activity of SNP at 1 μM − basal activity of sGC)) was 2.5. Besides, the “Mean efficacy at 100 μM with 1 μM of SNP, [% of YC-1]” value (compound at 100 μM with 1 μM sodium nitroprusside (SNP), normalized to 100 μM YC-1 (without SNP) as 100%) is given as 18 % of YC-1. Moreover, the Emax at 100 µM (compound at 100 μM without SNP, normalized to activity of 100 μM YC-1 (without SNP) as 100%, read-out: Mean basal efficacy at 100 μM, [% of YC-1]) is 3%.
